Experiments:
[1] = Electrode potential by differential pulse voltammetry under the conditions of table 1; assay type: physicochemical; details: comparison of FIGS. 12(c) and 3(c)
[2] = test system: carboxypeptidase; test: Digestion of Fc-BSA with carboxypeptidase, differential pulse voltammetry; assay type: biochemical
Protocol: (§1) Protease assays were performed as follows unless stated otherwise. […] Samples were incubated at 37° C. for 1 hour.
A digestion of Fc-BSA with carboxypeptidase was carried out as described above. […] The positive reaction has a peak position of 435 mV and a peak height of 1.31×10^−7 A; the no elastase control reaction has a peak position of 427 mV and a peak height of 6.86×10^−8 A.

[3] = test system: elastase; test: Digestion of Fc-BSA with elastase, differential pulse voltammetry; assay type: biochemical
Protocol: as §1
A digestion of Fc-BSA with elastase was carried out as described above. […] The positive reaction has a peak position of 430 mV and a peak height of 2.57×10^−7 A; the no elastase control reaction has a peak position of 432 mV and a peak height of 2.55×10^−8 A.

Substance: Fc-BSA: Bovine serum albumin labelled with ferrocene methanoyl groups via N-hydroxysuccinimide ester; estimated 10 to 20 ferrocenes per BSA
- peak in voltammograms of digestion [1]: around 400 mV
- peak position ([2]; no elastase control reaction (so in the source)): 427 mV
- peak position ([2]; positive reaction, 37° C. for 1 hour): 435 mV
- peak position ([3]; no elastase control reaction): 432 mV
- peak position ([3]; positive reaction, tris HCl pH 8.5, 37° C. for 1 hour): 430 mV

Substance: FcU-BSA: Bovine serum albumin labelled with 4-(3′-ferrocenylureido)-1-benzoyl groups
- peak in voltammograms of digestion [1]: around 100 mV

— patent US7803572B2, “Protease detection assay” (Atlas Genetics, Ltd., priority 2003, dated 2010)
